The exact form of at least one protein or probe is not confirmed. For some assays here: Weaker means in comparison with the reference protein, sequence or condition of that experiment. For some assays here: At least one verdict was read from the data and is not stated in words by the source.

Results on four sequences are retold here after paper PMC4433220.

The target of data set [1] is Dps (Escherichia coli) (UniProt P0ABT2). The data set is described as follows: DNase I footprinting. The conditions noted are these: 10 mM Mg2+, footprinting: 50 mM Tris-HCl pH 8.0, 0.1 mM EDTA, 0.1 mM DTT, 10 mM MgCl2, 50 mM NaCl, 5 mg/ml BSA, 37°C 40 min, recombinant protein, probe letters rebuilt from the primers and the genome.
The target is the same in data set [2]. As to the kind of experiment: EMSA. The conditions noted are these: EMSA: 50 mM Tris-HCl pH 7.5, 0.1 mM EDTA, 50 mM NaCl, 37°C 30 min, recombinant protein, none in EMSA, probe letters rebuilt from the primers and the genome. (In general: In EMSA bound probe runs differently from free probe, usually more slowly.)
Data set [3] shares this target. The data set is described as follows: AFM. The conditions noted are these: recombinant protein.

On to “GGAAGATCTTCCTCGGAGAAACACTGACACCCATACAGCTACTGGCGCTCGGCGCTATCATCGCCGCTTCAATGGGGTCTACGCTGACAGTACGCAAAGAGAGCAAAATAAAAGAATTAGACATTAATTAAATTTACATTTCTGCATGGTTATGCATAACCATGCAGAATTTCTCGCTACTTTTCCTCTACACCGTCTTTATATATCTAGATAT (double strand) [dps F1-R1 fragment (distal P3)]”, for which the binding result is on record as “binds” with Dps (Escherichia coli) [1] (R1 end protected at 10-fold Dps excess, label: 32P 5' end of dps_F1 in footprinting, none in EMSA); “binds more weakly” with Dps (Escherichia coli) [2] (lower affinity than F2-R2 in mixed assay, label: 32P 5' end of dps_F1 in footprinting); “binds” with Dps (Escherichia coli) [3] (bound at DNA ends, label: 32P 5' end of dps_F1 in footprinting, none in EMSA, probe letters rebuilt from the primers and the genome).

In the case of “TCCTCTAGATGTTATGTCCCAGTAATTAACGAGATTAAGTATAGCACCGGCTATGTGTTCCGCTATTCTGGCTGTTCCTATCACACTAATAGTGGTAACAAGCGTGAAAAACAAAACTAATAAAGATTCAATGAGTTAGATATATTGATAAGAACAATTCTTATTTATCTGCTCGCCAGGAATTTTCGGAATAAATATGCTTTTGCATAATTCGATATATAAAGACGGTGTAGAGGAAAAGTAGCGAGAAATTCTGCATGGTTATGCATAACCATGCAGAAATGTAAATTTAATTAATGTCTAATTCTTTTATTTTGCTCTCTTTGCGTACTGTCAGCGTAGACCCCATTGAAGCGGCGATGATAGCGCCGAGCGCCAGTAGCTGTATGGGTGTCAGTGTTTCTCCGAGGAAGATCTTCC (double strand) [dps F1-R2 fragment]”, in the data set with Dps (Escherichia coli) [1] (5-fold Dps excess, label: 32P 5' end of dps_R2), the binding result is recorded as “binds”.

Take “TCCTCTAGATGTTATGTCCCAGTAATTAACGAGATTAAGTATAGCACCGGCTATGTGTTCCGCTATTCTGGCTGTTCCTATCACACTAATAGTGGTAACAAGCGTGAAAAACAAAACTAATAAAGATTCAATGAGTTAGATATATTGATAAGAACAATTCTTATTTATCTGCTCGCCAGGAATTTTCGGAATAAATATGCTTTTGCATAATTCGATATATAAAGACGGTGTAGAGGAAAAGTAGCGAGAAGATCTGCAT (double strand) [dps F2-R2 fragment (Pdps)]”: the binding result was “binds” in the data set with Dps (Escherichia coli) [1] (5- and 10-fold Dps excess, label: 32P 5' end of dps_R2 in footprinting, none in EMSA); “binds” in the data set with Dps (Escherichia coli) [2] (higher affinity than F1-R1 in mixed assay, label: 32P 5' end of dps_R2 in footprinting); “binds” in the data set with Dps (Escherichia coli) [3] (bound at DNA ends, label: 32P 5' end of dps_R2 in footprinting, none in EMSA, probe letters rebuilt from the primers and the genome).

As for “GCATAACCATGCAGAATTTCTCGCTACTTTTCCTCTACACCGTCTTTATATATCGAATTAAGAAGTCGCAATGAGTATTACTTTGTAAAT / CAAGGGTAAACGAACCTTGCGCTTTCTTAAATATTCGATATATAAAGACGGTGTAGAGGAAAAGTAGCGAGAAATTCTGCATGGTTATGC / ATTTACAAAGTAATACTCATTGCGACTTCTTAATTTAAGAAAGCGCAAGGTTCGTTTACCCTTG [Y9_Y10_Y7]”, in the data set with Dps (Escherichia coli) [3] (one or two DNA branches visible, folded or branched DNA), the binding result is on record as “binds”.
